Assay [1] has as its target T1, Pol2 catalytic domain (residues 1-1192), exonuclease-deficient (D290A/E292A) (yeast (S. cerevisiae)) (UniProt P21951).
T1 sequence: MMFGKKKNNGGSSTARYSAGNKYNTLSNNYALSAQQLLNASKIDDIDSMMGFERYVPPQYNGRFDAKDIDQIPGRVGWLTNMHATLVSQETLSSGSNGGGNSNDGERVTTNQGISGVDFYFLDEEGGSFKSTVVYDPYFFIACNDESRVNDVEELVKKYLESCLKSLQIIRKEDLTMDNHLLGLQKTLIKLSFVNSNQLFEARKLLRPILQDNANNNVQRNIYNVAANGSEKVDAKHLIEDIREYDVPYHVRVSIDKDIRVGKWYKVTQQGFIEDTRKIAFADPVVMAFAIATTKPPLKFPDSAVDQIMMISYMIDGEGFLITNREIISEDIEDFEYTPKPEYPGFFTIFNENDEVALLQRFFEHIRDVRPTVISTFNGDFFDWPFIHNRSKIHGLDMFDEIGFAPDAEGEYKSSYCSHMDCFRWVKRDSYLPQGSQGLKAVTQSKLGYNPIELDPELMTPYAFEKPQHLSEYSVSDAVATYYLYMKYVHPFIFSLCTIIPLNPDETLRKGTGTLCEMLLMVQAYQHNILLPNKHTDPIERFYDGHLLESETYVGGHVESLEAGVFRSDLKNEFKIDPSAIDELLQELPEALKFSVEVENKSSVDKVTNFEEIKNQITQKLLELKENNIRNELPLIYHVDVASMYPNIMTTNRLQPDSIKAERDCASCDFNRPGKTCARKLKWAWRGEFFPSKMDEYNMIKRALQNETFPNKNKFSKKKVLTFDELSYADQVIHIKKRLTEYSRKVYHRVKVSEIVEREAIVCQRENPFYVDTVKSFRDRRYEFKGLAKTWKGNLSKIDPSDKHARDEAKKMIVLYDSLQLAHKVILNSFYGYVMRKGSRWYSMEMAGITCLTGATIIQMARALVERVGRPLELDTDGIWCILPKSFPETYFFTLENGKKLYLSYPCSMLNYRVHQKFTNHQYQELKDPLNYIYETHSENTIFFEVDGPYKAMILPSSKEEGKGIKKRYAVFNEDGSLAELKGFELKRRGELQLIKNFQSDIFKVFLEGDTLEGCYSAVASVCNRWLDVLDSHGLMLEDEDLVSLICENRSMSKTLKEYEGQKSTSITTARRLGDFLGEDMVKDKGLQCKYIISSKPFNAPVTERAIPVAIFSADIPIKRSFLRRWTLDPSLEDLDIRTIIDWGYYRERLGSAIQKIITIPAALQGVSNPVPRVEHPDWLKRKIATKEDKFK
As to the kind of experiment: cryo-EM structure.

Assay [2] concerns the target T1, Pol2 catalytic domain (residues 1-1192), exonuclease-deficient (D290A/E292A) (yeast (S. cerevisiae)). Put plainly: native gel or EMSA.

No constants are given. Whether binding was seen depends on the method and setting. A result given as binding can be weak or reduced; the word gives no strength.

Turning to “Ctf18 C-terminus (the Ctf18 chain of Ctf18-1-8) (yeast (S. cerevisiae)) (domain or fragment)”, the binding entry in assay [1] is “binds”.

Turning to “Ctf18-1-8 with Dcc1 R367A/R376A/R380A (yeast (S. cerevisiae)) (complex)”, the binding result in assay [2] was “binds”.

On to “Ctf18-1-8 with Ctf18 V730R/R731A/K732A (yeast (S. cerevisiae)) (complex)”, for which the binding entry in assay [2] is given as “binds”.

With “Dcc1 (the Dcc1 chain of Ctf18-1-8) (yeast (S. cerevisiae))”, the binding result in assay [1] is “binds”.

Values taken from doi:10.1101/808840.
